Experimental data published in patent publication US20210269519A1.
No constants are given. Whether binding was seen depends on the method and setting. For some of these results: Binding seen in cells or lysates may run through a third protein. Some binding calls cover weakened binding; strength is not graded here. Sequences can lack the tags named with a protein.

Sequences of proteins named here, by UniProt entry; tags and fusion partners are left off. A change or cut given only in a name is not applied to a line headed by its entry.
UniProt Q9UKV5: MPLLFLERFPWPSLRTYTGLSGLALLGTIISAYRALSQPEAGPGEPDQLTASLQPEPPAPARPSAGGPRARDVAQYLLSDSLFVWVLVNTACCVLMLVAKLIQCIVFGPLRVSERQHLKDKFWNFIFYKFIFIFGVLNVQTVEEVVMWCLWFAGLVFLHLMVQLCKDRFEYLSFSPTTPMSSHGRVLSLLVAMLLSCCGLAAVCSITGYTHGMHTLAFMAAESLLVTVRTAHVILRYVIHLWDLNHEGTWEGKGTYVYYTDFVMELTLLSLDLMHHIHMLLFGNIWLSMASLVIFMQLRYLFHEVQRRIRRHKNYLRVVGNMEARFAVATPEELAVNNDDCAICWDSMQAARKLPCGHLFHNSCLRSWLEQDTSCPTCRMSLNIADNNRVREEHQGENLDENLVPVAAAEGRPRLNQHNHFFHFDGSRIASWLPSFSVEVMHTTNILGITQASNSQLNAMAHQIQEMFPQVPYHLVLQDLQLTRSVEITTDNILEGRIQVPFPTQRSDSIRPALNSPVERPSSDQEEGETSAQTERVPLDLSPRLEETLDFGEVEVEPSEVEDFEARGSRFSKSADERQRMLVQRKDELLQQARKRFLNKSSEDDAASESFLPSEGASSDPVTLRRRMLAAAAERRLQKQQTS
UniProt P49841: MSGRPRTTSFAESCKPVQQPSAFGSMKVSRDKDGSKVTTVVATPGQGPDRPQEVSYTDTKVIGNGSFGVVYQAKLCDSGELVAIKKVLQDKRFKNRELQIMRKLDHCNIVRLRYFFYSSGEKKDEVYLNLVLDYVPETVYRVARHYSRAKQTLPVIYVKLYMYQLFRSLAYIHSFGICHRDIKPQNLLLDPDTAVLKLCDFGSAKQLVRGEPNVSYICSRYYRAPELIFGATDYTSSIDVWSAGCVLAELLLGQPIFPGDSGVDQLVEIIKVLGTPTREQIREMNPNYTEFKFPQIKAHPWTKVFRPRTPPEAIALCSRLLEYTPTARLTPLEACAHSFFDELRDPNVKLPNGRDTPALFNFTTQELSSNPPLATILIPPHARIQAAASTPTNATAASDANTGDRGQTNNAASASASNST
UniProt O75581: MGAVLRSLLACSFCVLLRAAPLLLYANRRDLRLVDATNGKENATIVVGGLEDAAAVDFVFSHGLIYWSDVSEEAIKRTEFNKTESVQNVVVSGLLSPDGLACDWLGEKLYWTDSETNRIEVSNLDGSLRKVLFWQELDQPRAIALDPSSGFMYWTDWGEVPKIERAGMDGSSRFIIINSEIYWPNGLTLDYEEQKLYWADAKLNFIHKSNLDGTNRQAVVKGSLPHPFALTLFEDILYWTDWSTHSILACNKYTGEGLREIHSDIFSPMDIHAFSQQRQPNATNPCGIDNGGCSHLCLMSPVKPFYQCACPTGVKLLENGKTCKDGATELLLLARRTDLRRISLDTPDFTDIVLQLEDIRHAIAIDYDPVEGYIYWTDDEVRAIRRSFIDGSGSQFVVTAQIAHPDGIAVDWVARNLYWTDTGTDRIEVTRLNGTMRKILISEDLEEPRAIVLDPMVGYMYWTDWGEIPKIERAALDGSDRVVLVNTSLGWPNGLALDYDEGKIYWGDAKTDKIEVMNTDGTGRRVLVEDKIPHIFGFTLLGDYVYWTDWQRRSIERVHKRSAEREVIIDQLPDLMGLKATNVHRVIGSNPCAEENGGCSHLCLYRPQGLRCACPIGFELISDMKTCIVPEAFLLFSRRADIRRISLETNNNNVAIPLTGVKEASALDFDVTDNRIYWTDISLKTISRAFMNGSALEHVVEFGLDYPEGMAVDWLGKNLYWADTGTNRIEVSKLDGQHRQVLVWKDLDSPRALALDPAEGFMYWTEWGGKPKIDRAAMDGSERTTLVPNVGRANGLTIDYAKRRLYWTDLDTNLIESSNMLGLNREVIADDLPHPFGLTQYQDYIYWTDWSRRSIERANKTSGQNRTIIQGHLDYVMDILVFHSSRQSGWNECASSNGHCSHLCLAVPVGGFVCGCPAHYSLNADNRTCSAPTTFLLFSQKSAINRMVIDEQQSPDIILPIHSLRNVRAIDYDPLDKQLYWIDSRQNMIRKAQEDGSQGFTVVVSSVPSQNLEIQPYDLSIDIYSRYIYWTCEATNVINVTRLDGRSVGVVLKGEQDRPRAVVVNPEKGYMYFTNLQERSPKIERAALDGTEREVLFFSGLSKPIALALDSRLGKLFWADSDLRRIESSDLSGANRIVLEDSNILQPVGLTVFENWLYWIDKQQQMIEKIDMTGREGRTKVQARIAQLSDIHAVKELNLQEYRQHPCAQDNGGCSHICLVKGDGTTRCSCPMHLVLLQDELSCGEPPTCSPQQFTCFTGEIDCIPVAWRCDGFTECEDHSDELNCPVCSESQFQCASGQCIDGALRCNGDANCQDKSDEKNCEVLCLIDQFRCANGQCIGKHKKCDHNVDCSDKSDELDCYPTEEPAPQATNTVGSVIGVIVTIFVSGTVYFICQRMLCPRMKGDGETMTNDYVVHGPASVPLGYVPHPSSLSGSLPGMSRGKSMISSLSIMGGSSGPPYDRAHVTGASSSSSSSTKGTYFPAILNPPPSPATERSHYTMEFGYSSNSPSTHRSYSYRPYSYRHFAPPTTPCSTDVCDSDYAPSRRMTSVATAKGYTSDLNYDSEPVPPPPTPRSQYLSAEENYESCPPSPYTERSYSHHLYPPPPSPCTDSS
UniProt Q9ULT6: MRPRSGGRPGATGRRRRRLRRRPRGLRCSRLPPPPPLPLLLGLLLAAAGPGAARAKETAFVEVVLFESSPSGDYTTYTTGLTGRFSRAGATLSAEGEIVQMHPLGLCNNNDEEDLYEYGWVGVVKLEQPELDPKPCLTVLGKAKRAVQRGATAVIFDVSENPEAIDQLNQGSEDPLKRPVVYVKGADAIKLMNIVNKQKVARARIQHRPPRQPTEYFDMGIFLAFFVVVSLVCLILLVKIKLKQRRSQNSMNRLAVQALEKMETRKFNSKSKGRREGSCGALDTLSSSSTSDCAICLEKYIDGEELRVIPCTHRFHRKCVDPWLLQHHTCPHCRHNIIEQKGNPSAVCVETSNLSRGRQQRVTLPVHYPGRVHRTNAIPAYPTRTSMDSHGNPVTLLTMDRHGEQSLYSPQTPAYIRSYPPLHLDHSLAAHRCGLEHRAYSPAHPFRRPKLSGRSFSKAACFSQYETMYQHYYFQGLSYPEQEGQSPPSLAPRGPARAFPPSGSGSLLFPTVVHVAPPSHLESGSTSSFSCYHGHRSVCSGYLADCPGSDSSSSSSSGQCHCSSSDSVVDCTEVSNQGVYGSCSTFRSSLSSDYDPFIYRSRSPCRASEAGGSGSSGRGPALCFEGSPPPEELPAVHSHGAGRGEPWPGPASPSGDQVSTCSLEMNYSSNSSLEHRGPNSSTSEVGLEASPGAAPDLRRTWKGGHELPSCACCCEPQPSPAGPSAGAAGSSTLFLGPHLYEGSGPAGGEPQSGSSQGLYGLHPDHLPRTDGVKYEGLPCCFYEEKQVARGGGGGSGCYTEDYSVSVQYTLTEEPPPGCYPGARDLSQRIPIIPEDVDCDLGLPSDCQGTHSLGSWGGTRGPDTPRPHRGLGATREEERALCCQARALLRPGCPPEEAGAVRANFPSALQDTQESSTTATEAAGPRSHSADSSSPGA

How the values were obtained:
[1] = target: T1, Flag tagged-human Lmbr1l (limb region 1 like, LMBR1L) (human) (UniProt Q6UX01); test: anti-FLAG co-IP from HEK293T lysate + LC-MS/MS
T1 sequence: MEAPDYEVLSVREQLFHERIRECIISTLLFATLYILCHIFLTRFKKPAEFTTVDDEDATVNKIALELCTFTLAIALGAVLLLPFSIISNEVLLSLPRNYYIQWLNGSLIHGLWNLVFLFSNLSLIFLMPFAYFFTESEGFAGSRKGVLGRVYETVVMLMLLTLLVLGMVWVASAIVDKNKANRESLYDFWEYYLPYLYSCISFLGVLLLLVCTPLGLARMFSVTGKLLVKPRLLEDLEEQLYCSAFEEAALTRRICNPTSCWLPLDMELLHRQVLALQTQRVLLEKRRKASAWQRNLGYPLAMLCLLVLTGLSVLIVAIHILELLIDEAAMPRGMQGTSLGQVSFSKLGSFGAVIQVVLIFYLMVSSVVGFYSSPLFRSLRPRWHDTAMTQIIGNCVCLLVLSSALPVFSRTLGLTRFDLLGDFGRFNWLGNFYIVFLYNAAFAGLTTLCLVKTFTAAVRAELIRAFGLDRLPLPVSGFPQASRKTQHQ

[2] = target: T1, Flag tagged-human Lmbr1l (limb region 1 like, LMBR1L) (human); test: anti-FLAG co-IP from HEK293T lysate + LC-MS/MS, vs empty vector
[3] = target: β-catenin (human protein on the ProtoArray) (human) (UniProt P35222); test: ProtoArray human protein microarray probed with Flag-human LMBR1L-V5
[4] = target: FLAG-tagged GP78 (Homo sapiens (Human)) (UniProt Q9UKV5); test: co-IP (anti-FLAG M2 agarose) from co-transfected HEK293T cells, anti-HA immunoblot
[5] = target: FLAG-tagged GSK-3β (Homo sapiens (Human)) (UniProt P49841); test: as above
[6] = target: FLAG-tagged LRP6 (Homo sapiens (Human)) (UniProt O75581); test: as above
[7] = target: T2, FLAG-tagged UBAC2 (Homo sapiens (Human)) (UniProt Q8NBM4); test: as above
T2 sequence: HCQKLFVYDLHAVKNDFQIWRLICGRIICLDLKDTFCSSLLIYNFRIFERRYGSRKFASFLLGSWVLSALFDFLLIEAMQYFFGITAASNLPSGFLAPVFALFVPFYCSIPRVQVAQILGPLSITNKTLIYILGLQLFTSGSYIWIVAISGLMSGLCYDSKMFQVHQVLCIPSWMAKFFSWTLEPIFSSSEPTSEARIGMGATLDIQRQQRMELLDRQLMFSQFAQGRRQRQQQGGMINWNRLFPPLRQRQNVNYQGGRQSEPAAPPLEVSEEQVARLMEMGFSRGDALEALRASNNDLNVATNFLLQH

[8] = target: T3, FLAG-tagged UBXD8 (Homo sapiens (Human)) (UniProt Q96CS3); test: as above
T3 sequence: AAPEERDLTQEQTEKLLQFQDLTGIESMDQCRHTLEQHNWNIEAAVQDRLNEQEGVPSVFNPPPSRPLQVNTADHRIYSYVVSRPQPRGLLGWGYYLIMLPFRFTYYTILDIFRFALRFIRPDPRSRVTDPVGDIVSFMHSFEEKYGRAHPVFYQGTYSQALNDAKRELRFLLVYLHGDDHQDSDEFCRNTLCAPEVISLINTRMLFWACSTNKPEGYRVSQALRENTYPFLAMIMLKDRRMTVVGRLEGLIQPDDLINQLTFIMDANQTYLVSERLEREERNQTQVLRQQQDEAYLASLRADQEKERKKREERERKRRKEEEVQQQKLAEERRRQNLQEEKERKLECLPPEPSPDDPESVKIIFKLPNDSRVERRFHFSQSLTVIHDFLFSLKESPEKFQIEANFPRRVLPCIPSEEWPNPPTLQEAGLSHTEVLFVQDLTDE

[9] = target: FLAG-tagged VCP (Homo sapiens (Human)) (UniProt P55072); test: as above
[10] = target: FLAG-tagged ZNRF3 (Homo sapiens (Human)) (UniProt Q9ULT6); test: as above
[11] = target: FLAG-tagged β-catenin (Homo sapiens (Human)) (UniProt P35222); test: as above
[12] = target: FLAG-tagged GSK-3β (Homo sapiens (Human)) (UniProt P49841); test: co-IP (anti-FLAG M2 agarose) from co-transfected HEK293T cells, anti-HA immunoblot (FIG. 4B)
[13] = target: FLAG-tagged LRP6 (Homo sapiens (Human)) (UniProt O75581); test: as above
[14] = target: FLAG-tagged ZNRF3 (Homo sapiens (Human)) (UniProt Q9ULT6); test: as above
[15] = target: FLAG-tagged β-catenin (Homo sapiens (Human)) (UniProt P35222); test: as above
[16] = target: FLAG-tagged GP78 (Homo sapiens (Human)) (UniProt Q9UKV5); test: co-IP (anti-FLAG M2 agarose) from co-transfected HEK293T cells, anti-HA immunoblot (FIG. 19)
[17] = target: T2, FLAG-tagged UBAC2 (Homo sapiens (Human)); test: as above
[18] = target: T3, FLAG-tagged UBXD8 (Homo sapiens (Human)); test: as above
[19] = target: FLAG-tagged VCP (Homo sapiens (Human)) (UniProt P55072); test: as above

Measured: binding

B1: β-catenin (CTNNB1) (protein)
chain: MELDMAMEPDRKAAVSHWQQQSYLDSGIHSGATTTAPSLSGKGNPEEEDVDTSQVLYEWEQGFSQSFTQEQVADIDGQYAMTRAQRVRAAMFPETLDEGMQIPSTQFDAAHPTNVQRLAEPSQMLKHAVVNLINYQDDAELATRAIPELTKLLNDEDQVVVNKAAVMVHQLSKKEASRHAIMRSPQMVSAIVRTMQNTNDVETARCTAGTLHNLSHHREGLLAIFKSGGIPALVKMLGSPVDSVLFYAITTLHNLLLHQEGAKMAVRLAGGLQKMVALLNKTNVKFLAITTDCLQILAYGNQESKLIILASGGPQALVNIMRTYTYEKLLWTTSRVLKVLSVCSSNKPAIVEAGGMQALGLHLTDPSQRLVQNCLWTLRNLSDAATKQEGMEGLLGTLVQLLGSDDINVVTCAAGILSNLTCNNYKNKMMVCQVGGIEALVRTVLRAGDREDITEPAICALRHLTSRHQEAEMAQNAVRLHYGLPVVVKLLHPPSHWPLIKATVGLIRNLALCPANHAPLREQGAIPRLVQLLVRAHQDTQRRTSMGGTQQQFVEGVRMEEIVEGCTGALHILARDVHNRIVIRGLNTIPLFVQLLYSPIENIQRVAAGVLCELAQDKEAAEAIEAEGATAPLTELLHSRNEGVATYAAAVLFRMSEDKPQDYKKRLSVELTSSLFRTEPMAWNETADLGLDIGAQGEPLGYRQDDPSYRSFHSGGYGQDALGMDPMMEHEMGGHHPGADYPVDGLPDLGHAQDLMDGLPPGDSNQLAWFDTDL
binds: [1] | [2]

B2: Flag-human LMBR1L-V5 (N-terminus FLAG-tagged and C-terminus V5-tagged recombinant human LMBR1L) (receptor, not shown: small tags and cut ends)
chain: MEAPDYEVLSVREQLFHERIRECIISTLLFATLYILCHIFLTRFKKPAEFTTVDDEDATVNKIALELCTFTLAIALGAVLLLPFSIISNEVLLSLPRNYYIQWLNGSLIHGLWNLVFLFSNLSLIFLMPFAYFFTESEGFAGSRKGVLGRVYETVVMLMLLTLLVLGMVWVASAIVDKNKANRESLYDFWEYYLPYLYSCISFLGVLLLLVCTPLGLARMFSVTGKLLVKPRLLEDLEEQLYCSAFEEAALTRRICNPTSCWLPLDMELLHRQVLALQTQRVLLEKRRKASAWQRNLGYPLAMLCLLVLTGLSVLIVAIHILELLIDEAAMPRGMQGTSLGQVSFSKLGSFGAVIQVVLIFYLMVSSVVGFYSSPLFRSLRPRWHDTAMTQIIGNCVCLLVLSSALPVFSRTLGLTRFDLLGDFGRFNWLGNFYIVFLYNAAFAGLTTLCLVKTFTAAVRAELIRAFGLDRLPLPVSGFPQASRKTQHQ
binds: [3]

B3: HA-tagged LMBR1L (receptor, not shown: small tags and cut ends)
chain: MEAPDYEVLSVREQLFHERIRECIISTLLFATLYILCHIFLTRFKKPAEFTTVDDEDATVNKIALELCTFTLAIALGAVLLLPFSIISNEVLLSLPRNYYIQWLNGSLIHGLWNLVFLFSNLSLIFLMPFAYFFTESEGFAGSRKGVLGRVYETVVMLMLLTLLVLGMVWVASAIVDKNKANRESLYDFWEYYLPYLYSCISFLGVLLLLVCTPLGLARMFSVTGKLLVKPRLLEDLEEQLYCSAFEEAALTRRICNPTSCWLPLDMELLHRQVLALQTQRVLLEKRRKASAWQRNLGYPLAMLCLLVLTGLSVLIVAIHILELLIDEAAMPRGMQGTSLGQVSFSKLGSFGAVIQVVLIFYLMVSSVVGFYSSPLFRSLRPRWHDTAMTQIIGNCVCLLVLSSALPVFSRTLGLTRFDLLGDFGRFNWLGNFYIVFLYNAAFAGLTTLCLVKTFTAAVRAELIRAFGLDRLPLPVSGFPQASRKTQHQ
binds: [4] | [5] | [6] | [7] | [8] | [9] | [10] | [11] | [12] | [13] | [14] | [15] | [16] | [17] | [18] | [19]
